The list does not hold the whole screen: it gathers tests that were run many times, whatever their T/C, doses with no T/C, and many T/C values between a quarter and a half above the control. Further doses and runs are listed elsewhere. T/C gives the treated animals as a percentage of the vehicle group. Some doses have a count of surviving animals in place of a T/C: the source holds a T/C of zero for them, seemingly a mark for toxic or unscored doses. Some survivor counts are full or nearly so, which does not show that the dose was tolerated: survival well below the control is almost never listed, so the zero probably covers shortened survival too. Survivors were counted at the toxicity check, usually on the fifth day, unless a day is given; later deaths do not show. Schedule codes are those of the source, taken here to give the interval after Q, in days (D) or hours (H), and the number of doses after X. Some entries hold several experiments; the values are given in rising order. For survival time, this PubChem deposit counts one and a half times the control or more as active, and values a quarter to a half above the control carry no call in these data; other NCI protocols may use other cut-offs. Some T/C values are followed by the survivors on the day toxicity was checked, most often the fifth; without a count, all were alive then. Counts like (3×) stand for listed records that agree.
Test system: B6C3F1 mice, ip Sarcoma M5076, median survival T/C
Assay: NCI In Vivo Anticancer Drug Screen. Data for tumor model Sarcoma M5076 (intraperitoneal) in B6C3F1 mice
Conditions: T/C endpoint: median survival time, higher T/C = longer survival
Outline: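 The readout is a ratio of survival in drug-treated animals to survival in animals given vehicle alone, taken in mice bearing a transplanted tumour line.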

[1] = dose: 800.0 mg/kg/injection, schedule: Q04DX004 (ip), vehicle: Klucel (hydroxypropylcellulose) (HPC)
[2] = dose: 50.0 mg/kg/injection, schedule: Q04DX004 (ip), vehicle: saline with Tween-80
[3] = dose: 100.0 mg/kg/injection, schedule: Q04DX004 (ip), vehicle: saline with Tween-80
[4] = dose: 200.0 mg/kg/injection, schedule: Q04DX004 (ip), vehicle: saline with Tween-80
[5] = dose: 400.0 mg/kg/injection, schedule: Q04DX004 (ip), vehicle: saline with Tween-80
[6] = dose: 40.0 mg/kg/injection, schedule: Q04DX004 (ip), vehicle: saline
[7] = dose: 700.0 mg/kg/injection, schedule: Q04DX004 (ip), vehicle: saline with Tween-80

COC1CC(C)C(OC)c2cc(O)cc(c2O)NC(=O)/C(C)=C/C=C\C(C)C(OC(N)=O)/C(C)=C\C(C)C1OC (stereo unspecified)
T/C (dose: 3.0 mg/kg/injection, schedule: Q01DX009 (ip), vehicle: saline + alcohol): 139 % of control | T/C (dose: 5.0 mg/kg/injection, schedule: Q01DX009 (ip), vehicle: saline + alcohol): 125 [8 of 10 alive on day 14] and 149 % of control | T/C (dose: 8.3 mg/kg/injection, schedule: Q01DX009 (ip), vehicle: saline + alcohol): 146 % of control [8 of 10 alive on day 14] | survivor count (dose: 10.0 mg/kg/injection, schedule: Q01DX009 (ip), vehicle: saline + alcohol): 0 of 10 on day 14

COc1ccc(OC)c(Cc2cnc3nc(N)nc(N)c3c2C)c1
T/C (dose: 100.0 mg/kg/injection, schedule: Q04DX004 (ip), vehicle: water): 137 % of control [8 of 10 alive on day 14] | survivor count (dose: 200.0 mg/kg/injection, schedule: Q04DX004 (ip), vehicle: water): 3 of 10 on day 14 | survivor count (dose: 400.0 mg/kg/injection, schedule: Q04DX004 (ip), vehicle: water): 0 of 10 on day 14

CCOC(=O)/C=C1/SC(N2CCCCC2)C(=O)N1CC (stereo unspecified)
survivor count [1]: 0 of 10 on day 14

Cc1c(O)c(O)c(C)c(CCN)c1O
survivor count (dose: 225.0 mg/kg/injection, schedule: Q04DX004 (ip), vehicle: saline with Tween-80): 3 of 10 on day 14 | survivor count (dose: 450.0 mg/kg/injection, schedule: Q04DX004 (ip), vehicle: saline with Tween-80): 0 of 10 on day 14

CN=C(N)N/N=C(\C)c1ccc2sc3ccc(/C(C)=N/NC(N)=NC)cc3c2c1
T/C [2]: 131 % of control | T/C [3]: 132 % of control [9 of 10 alive on day 14] | T/C [4]: 136 % of control | survivor count [5]: 3 of 10 on day 14

CNc1nc(N(C)C)nc(N(C)C)n1
survivor count (dose: 400.0 mg/kg/injection, schedule: Q04DX004 (ip), vehicle: suspension in saline): 0 of 10 on day 14

CCCCCC[Se][Se]CCCCCC
survivor count (dose: 50.0 mg/kg/injection, schedule: Q04DX004 (ip), vehicle: Klucel (hydroxypropylcellulose) (HPC)): 3 of 10 on day 9

COc1ccc(C=C(C(=O)CCN(C)C)C(=O)CCN(C)C)cc1
survivor count (dose: 400.0 mg/kg/injection, schedule: Q04DX004 (ip), vehicle: saline): 6 of 10 on day 14

OCC1OC(n2cnc3cc(Cl)c(Cl)cc32)C(O)C1O (stereo unspecified)
survivor count (dose: 1200.0 mg/kg/injection, schedule: Q04DX004 (ip), vehicle: saline with Tween-80): 0 of 10 on day 14

Nc1nc([Se]c2nc(N)nc3c2ncn3C2OC(CO)C(O)C2O)c2ncn(C3OC(CO)C(O)C3O)c2n1 (stereo unspecified)
T/C (dose: 50.0 mg/kg/injection, schedule: Q04DX004 (ip), vehicle: distilled water + Tween-80): 127 and 131 % of control | T/C (dose: 100.0 mg/kg/injection, schedule: Q04DX004 (ip), vehicle: distilled water + Tween-80): 138 % of control | survivor count (dose: 400.0 mg/kg/injection, schedule: Q04DX004 (ip), vehicle: distilled water + Tween-80): 2 of 10 on day 14 | survivor count (dose: 800.0 mg/kg/injection, schedule: Q04DX004 (ip), vehicle: distilled water + Tween-80): 0 of 10 on day 14

CC(=O)C1C(=O)C(=O)N(Cc2ccccc2)C1=O (stereo unspecified)
survivor count (dose: 750.0 mg/kg/injection, schedule: Q04DX004 (ip), vehicle: Klucel (hydroxypropylcellulose) (HPC)): 6 of 10 on day 14

CC(=O)c1cccc(NC2C(N)C(NC(=O)N(C)C)(C(C)O)C(C)(O)C2(O)COC(=O)c2c(C)cccc2O)c1 (stereo unspecified)
T/C (dose: 20.0 mg/kg/injection, schedule: Q04DX004 (ip), vehicle: saline): 145 % of control | T/C [6]: 134 % of control | survivor count [6]: 0 of 10 on day 14

CNC(=O)/C=C/C1=CN2C(=O)c3ccc(C)c(O)c3NC(OC)C2C1 (stereo unspecified)
T/C (dose: 200.0 micrograms/kg/injection, schedule: Q04DX004 (ip), vehicle: saline): 138 % of control

COc1cc2cc3c(c(O)c2c(O)c1/C=C/C(C)C)C(=O)CC(C)(OC(C)=O)C3 (stereo unspecified)
T/C (dose: 1.25 mg/kg/injection, schedule: Q01DX009 (ip), vehicle: Klucel (hydroxypropylcellulose) (HPC)): 99, 105, 111, 112 % of control | T/C (dose: 2.5 mg/kg/injection, schedule: Q01DX009 (ip), vehicle: Klucel (hydroxypropylcellulose) (HPC)): 104 [9 of 10 alive on day 14], 105 (2×), 113 % of control | T/C (dose: 5.0 mg/kg/injection, schedule: Q01DX009 (ip), vehicle: Klucel (hydroxypropylcellulose) (HPC)): 104, 114, 116, 117 % of control [9 of 10 alive on day 14] | T/C (dose: 5.0 mg/kg/injection, schedule: Q04DX004 (ip), vehicle: Klucel (hydroxypropylcellulose) (HPC)): 126 % of control | survivor count (dose: 10.0 mg/kg/injection, schedule: Q01DX009 (ip), vehicle: Klucel (hydroxypropylcellulose) (HPC)): 0 of 10 on day 14 and 9 of 10 on day 9 | T/C (dose: 10.0 mg/kg/injection, schedule: Q04DX004 (ip), vehicle: Klucel (hydroxypropylcellulose) (HPC)): 132 % of control | survivor count (dose: 27.78 mg/kg/injection, schedule: Q04DX004 (ip), vehicle: Klucel (hydroxypropylcellulose) (HPC)): 3 of 10 on day 14

S=c1sc2ccccc2n1CN1CCOCC1
survivor count [5]: 5 of 10 on day 14 and 6 of 10 on day 14

CCOc1ccc(-c2nc3ccc(-c4nc5ccc(N6CCN(C)CC6)cc5[nH]4)cc3[nH]2)cc1
survivor count (dose: 50.0 mg/kg/injection, schedule: Q04DX004 (ip), vehicle: saline): 0 of 10 on day 14

N=C(N)Sc1cc(O)ccc1O
survivor count [7]: 0 of 10 on day 14

CC(=O)C[n+]1ccccc1Sc1ccc(Cl)cc1
survivor count [4]: 0 of 10 on day 14 | survivor count [5]: 0 of 10 on day 14

O=S1(=O)CS(=O)(=O)OCCO1
T/C (dose: 25.0 mg/kg/injection, schedule: Q01DX001 (oral), vehicle: Klucel (hydroxypropylcellulose) (HPC)): 126 % of control | T/C (dose: 50.0 mg/kg/injection, schedule: Q01DX001 (oral), vehicle: Klucel (hydroxypropylcellulose) (HPC)): 141 % of control | survivor count (dose: 100.0 mg/kg/injection, schedule: Q01DX009 (oral), vehicle: Klucel (hydroxypropylcellulose) (HPC)): 4 of 10 on day 14 | survivor count (dose: 100.0 mg/kg/injection, schedule: Q04DX004 (ip), vehicle: Klucel (hydroxypropylcellulose) (HPC)): 1 of 10 on day 14 and 4 of 10 on day 14 | survivor count (dose: 200.0 mg/kg/injection, schedule: Q01DX001 (oral), vehicle: Klucel (hydroxypropylcellulose) (HPC)): 2 of 10 on day 14 | survivor count (dose: 200.0 mg/kg/injection, schedule: Q04DX004 (ip), vehicle: Klucel (hydroxypropylcellulose) (HPC)): 0 of 10 on day 14 | survivor count (dose: 400.0 mg/kg/injection, schedule: Q04DX004 (ip), vehicle: Klucel (hydroxypropylcellulose) (HPC)): 0 of 10 on day 14

O=C/C(Cl)=C(/Cl)C(=O)O
survivor count [2]: 0 of 10 on day 14 | survivor count [3]: 0 of 10 on day 14 | survivor count [4]: 0 of 10 on day 14

CCCCNP1(NCCCC)=NP(NCCCC)(NCCCC)=NP(NCCCC)(NCCCC)=NP(NCCCC)(NCCCC)=N1
survivor count [2]: 1 of 10 on day 14 | survivor count [3]: 2 of 10 on day 14 | survivor count [4]: 1 of 10 on day 14

O=[n+]1c2c(n([O-])c3ccccc31)CCC2
T/C (dose: 87.5 mg/kg/injection, schedule: Q04DX004 (ip), vehicle: saline with Tween-80): 125 % of control | survivor count [7]: 0 of 10 on day 14

COc1ccc(C2NC(=S)NC(=O)C2C#N)cc1OC (stereo unspecified)
survivor count [1]: 0 of 10 on day 14

O=C1N[C@@H]([C@H]2CC[C@H](Cl)CN2)C(=O)N[C@H]1[C@H]1CC[C@H](Cl)CN1
T/C (dose: 1.0 mg/kg/injection, schedule: Q04DX005 (ip), vehicle: saline): 143 % of control

Source: PubChem BioAssay AID292 (DTP/NCI, 2004)
